Results are given in words; binding and its absence hold for the method and conditions named. Binding seen in cells or lysates may run through a third protein. Some binding calls cover weakened binding; strength is not graded here. For part of these data: Where a sequence is shown, tags or fusion partners need not be part of it.

The target of one assay is T1, FLAG-TBK1 (UniProt Q9UHD2).
T1 sequence: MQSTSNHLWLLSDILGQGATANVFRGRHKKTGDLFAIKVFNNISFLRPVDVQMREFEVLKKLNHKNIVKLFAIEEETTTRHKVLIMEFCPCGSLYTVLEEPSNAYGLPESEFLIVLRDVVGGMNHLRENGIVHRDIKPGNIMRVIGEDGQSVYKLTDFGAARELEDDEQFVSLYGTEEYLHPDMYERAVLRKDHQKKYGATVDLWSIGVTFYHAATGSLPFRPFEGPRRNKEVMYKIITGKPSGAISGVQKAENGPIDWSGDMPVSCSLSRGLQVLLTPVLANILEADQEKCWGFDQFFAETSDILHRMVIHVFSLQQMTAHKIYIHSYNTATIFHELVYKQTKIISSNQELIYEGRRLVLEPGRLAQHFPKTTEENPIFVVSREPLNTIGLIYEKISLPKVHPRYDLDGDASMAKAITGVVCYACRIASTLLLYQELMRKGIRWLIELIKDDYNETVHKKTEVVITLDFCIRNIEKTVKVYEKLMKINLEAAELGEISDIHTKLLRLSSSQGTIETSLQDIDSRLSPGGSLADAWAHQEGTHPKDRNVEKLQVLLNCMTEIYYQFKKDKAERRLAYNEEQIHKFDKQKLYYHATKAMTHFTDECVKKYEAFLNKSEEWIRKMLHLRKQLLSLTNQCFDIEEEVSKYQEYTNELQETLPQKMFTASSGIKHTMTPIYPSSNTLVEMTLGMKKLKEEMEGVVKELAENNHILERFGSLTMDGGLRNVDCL
The experiment in a line: co-IP; reciprocal: FLAG-TBK1 or FLAG-TBK1 K38A precipitated with anti-FLAG from HEK 293T lysates with ectopic SNRNP200, uninfected and SeV-infected cells; blot with anti-SNRNP200.

Another assay concerns the target T2, FLAG-TBK1 K38A mutant (UniProt Q9UHD2).
T2 sequence: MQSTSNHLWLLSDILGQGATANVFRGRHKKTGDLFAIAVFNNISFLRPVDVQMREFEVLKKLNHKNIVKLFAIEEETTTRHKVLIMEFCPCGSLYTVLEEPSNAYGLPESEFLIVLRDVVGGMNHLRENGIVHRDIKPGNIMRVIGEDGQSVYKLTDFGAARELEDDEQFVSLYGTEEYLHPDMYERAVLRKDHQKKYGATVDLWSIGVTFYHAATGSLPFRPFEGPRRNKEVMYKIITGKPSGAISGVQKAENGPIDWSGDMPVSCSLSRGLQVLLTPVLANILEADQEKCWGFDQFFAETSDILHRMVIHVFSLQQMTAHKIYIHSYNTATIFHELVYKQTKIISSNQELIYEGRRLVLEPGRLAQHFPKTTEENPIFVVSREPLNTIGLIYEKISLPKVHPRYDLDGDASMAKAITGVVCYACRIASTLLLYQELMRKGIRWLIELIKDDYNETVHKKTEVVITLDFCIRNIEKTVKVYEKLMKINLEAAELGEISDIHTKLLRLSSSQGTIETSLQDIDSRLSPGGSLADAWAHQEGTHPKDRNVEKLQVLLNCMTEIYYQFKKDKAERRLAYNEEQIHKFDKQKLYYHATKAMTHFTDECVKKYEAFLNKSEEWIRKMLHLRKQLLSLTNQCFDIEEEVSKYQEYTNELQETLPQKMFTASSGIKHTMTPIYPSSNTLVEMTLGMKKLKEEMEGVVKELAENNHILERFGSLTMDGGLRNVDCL
The description is as above.

Assay [1] deals with T3, TBK1 (endogenous, A549) (human (endogenous in A549)) (UniProt Q9UHD2).
T3 sequence: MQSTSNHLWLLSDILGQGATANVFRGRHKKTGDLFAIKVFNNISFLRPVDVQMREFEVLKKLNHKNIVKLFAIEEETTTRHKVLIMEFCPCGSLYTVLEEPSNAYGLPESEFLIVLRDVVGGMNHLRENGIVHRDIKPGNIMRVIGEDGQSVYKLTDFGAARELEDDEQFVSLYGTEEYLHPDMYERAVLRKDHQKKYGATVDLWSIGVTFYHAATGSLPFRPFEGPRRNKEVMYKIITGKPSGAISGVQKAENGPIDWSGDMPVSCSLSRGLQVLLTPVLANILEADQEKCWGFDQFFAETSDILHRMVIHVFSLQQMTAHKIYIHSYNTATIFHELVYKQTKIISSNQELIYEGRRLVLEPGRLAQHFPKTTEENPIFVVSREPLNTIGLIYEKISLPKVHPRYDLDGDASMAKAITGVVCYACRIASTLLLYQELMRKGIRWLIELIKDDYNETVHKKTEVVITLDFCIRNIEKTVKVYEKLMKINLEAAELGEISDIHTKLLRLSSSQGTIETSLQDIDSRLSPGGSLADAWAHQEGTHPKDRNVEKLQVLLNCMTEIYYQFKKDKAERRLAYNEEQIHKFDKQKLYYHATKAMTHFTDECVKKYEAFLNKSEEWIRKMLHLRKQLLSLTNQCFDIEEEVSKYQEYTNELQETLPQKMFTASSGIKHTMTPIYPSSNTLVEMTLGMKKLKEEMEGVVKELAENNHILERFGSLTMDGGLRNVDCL
The experiment in a line: co-IP; endogenous proteins, A549 cells untreated or infected with SeV for 16 hours; lysates precipitated with anti-TBK1 or control IgG and protein G sepharose beads; blot for TBK1 and SNRNP200.

Another assay concerns the target FLAG-SNRNP200 (human) (UniProt O75643). The experiment in a line: co-IP; FLAG-SNRNP200 constructs precipitated with M2 anti-FLAG affinity gel overnight from pre-cleared HEK 293T lysates (10 mM Tris-HCl, 100 mM NaCl, 0.5% Triton X-100, pH 7.6; 1 mg/ml) after 16 hours of SeV infection; five washes, elution with FLAG peptide; blot with anti-TBK1.
In assay [2] the target is T4, FLAG-SNRNP200 Sec63-1 domain (human) (UniProt O75643).
T4 sequence: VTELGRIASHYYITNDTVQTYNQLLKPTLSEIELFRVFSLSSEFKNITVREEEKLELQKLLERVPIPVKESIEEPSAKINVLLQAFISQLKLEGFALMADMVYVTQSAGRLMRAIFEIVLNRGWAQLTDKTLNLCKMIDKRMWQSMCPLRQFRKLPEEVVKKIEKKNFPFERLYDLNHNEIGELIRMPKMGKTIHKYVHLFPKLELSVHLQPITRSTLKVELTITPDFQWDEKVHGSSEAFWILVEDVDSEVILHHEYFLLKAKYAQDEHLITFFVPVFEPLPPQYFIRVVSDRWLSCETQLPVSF
The description is as above.

Assay [3] addresses FLAG-SNRNP200 S1087L mutant (human) (UniProt O75643). Described as above.

“SNRNP200 (ectopically expressed, no tag named) (from UniProt O75643 1-2136)”: the binding entry with FLAG-TBK1 and with FLAG-TBK1 K38A mutant was “binds” in each case.

As to “SNRNP200 (endogenous, A549) (from UniProt O75643 1-2136)”, the binding result in assay [1] is given as “binds”.

B1: TBK1 (endogenous, HEK 293T) (enzyme, UniProt Q9UHD2 1-729)
chain: MQSTSNHLWLLSDILGQGATANVFRGRHKKTGDLFAIKVFNNISFLRPVDVQMREFEVLKKLNHKNIVKLFAIEEETTTRHKVLIMEFCPCGSLYTVLEEPSNAYGLPESEFLIVLRDVVGGMNHLRENGIVHRDIKPGNIMRVIGEDGQSVYKLTDFGAARELEDDEQFVSLYGTEEYLHPDMYERAVLRKDHQKKYGATVDLWSIGVTFYHAATGSLPFRPFEGPRRNKEVMYKIITGKPSGAISGVQKAENGPIDWSGDMPVSCSLSRGLQVLLTPVLANILEADQEKCWGFDQFFAETSDILHRMVIHVFSLQQMTAHKIYIHSYNTATIFHELVYKQTKIISSNQELIYEGRRLVLEPGRLAQHFPKTTEENPIFVVSREPLNTIGLIYEKISLPKVHPRYDLDGDASMAKAITGVVCYACRIASTLLLYQELMRKGIRWLIELIKDDYNETVHKKTEVVITLDFCIRNIEKTVKVYEKLMKINLEAAELGEISDIHTKLLRLSSSQGTIETSLQDIDSRLSPGGSLADAWAHQEGTHPKDRNVEKLQVLLNCMTEIYYQFKKDKAERRLAYNEEQIHKFDKQKLYYHATKAMTHFTDECVKKYEAFLNKSEEWIRKMLHLRKQLLSLTNQCFDIEEEVSKYQEYTNELQETLPQKMFTASSGIKHTMTPIYPSSNTLVEMTLGMKKLKEEMEGVVKELAENNHILERFGSLTMDGGLRNVDCL
For the molecule B1, the binding result (in the assay with FLAG-SNRNP200 (human); in assay [2]; in assay [3]) was “binds” each time.

The values above are taken from article PMC4959778.
